Measurements: patent US20220033448A1, “METHODS FOR AGGREGATION OF PROTEINS” (priority 2011, published 2022)
Read-outs that look alike come from different tables or passages of the source. For some assays here: Not every detail of the peptide structures is certain; ends, links or a residue may be inferred. Some results were stated once for a whole list of compounds, not compound by compound. No end group written: not given here.

Assays:
[1] = tested on: S. aureus ATCC 27853; experiment: Invasion assay: bacteria in infected HCT116 cell monolayers (CFU count); format: cell-based; conditions: 100 μg/ml, 90 minutes infection, 1 h treatment
Description: In this assay HCT116 cell monolayers (a human colon tumor cell line) were cultured at the bottom of a microwell plate. The next day fresh S. aureus ATCC 27853 bacteria were added (approximately 10^6 CFU/ml) and a negative uninfected control included. After 90 minutes of infection different dilution of peptides were added and the cultures were incubated for another hour. As a positive control Gentamycin was used, given that it has a good intracellular activity. Each well was washed with pre-warmed physiological water to get rid of any extra-cellular bacteria, followed by 1% Triton treatment to release all entrapped bacteria from mammalian cells. The content of the well was serially diluted and plated on TSA agar plates for CFU count.

[2] = biological target: T1, CRP (Homo sapiens, UniProt P02741); experiment: Peptide microarray (PepStar glass slides) detection of CRP in clinical serum; format: binding; conditions: serum containing 317 μg ml^−1 CRP diluted to 10%
T1 construct: Serum sample of a patient containing 317 μg ml^−1 CRP was diluted to 10% in PBS-T; from tissue; host or cells: clinical human serum
T1 sequence (P02741 19-224): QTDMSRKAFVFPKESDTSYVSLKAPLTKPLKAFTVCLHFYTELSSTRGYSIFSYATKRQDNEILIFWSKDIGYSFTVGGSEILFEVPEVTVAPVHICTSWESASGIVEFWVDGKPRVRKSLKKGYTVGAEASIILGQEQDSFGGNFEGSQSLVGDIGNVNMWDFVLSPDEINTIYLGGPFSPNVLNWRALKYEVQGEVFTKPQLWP

[3] = tested on: S. epidermidis strain ATCC 12228 and S. aureus ATCC; format: cell-based, Staphylococcus
Description: Time-kill curves were obtained to study the kinetics of bactericidal activity. Compounds C30, Hit50 and C29 (for sequences see above) were tested against S. epidermidis strain ATCC 12228 and S. aureus ATCC at the compound's MIC and two times MIC value. It was shown that compound C30 decreased the viable counts by 100% within 5 min, while Hit50 reduced the viable counts by ^˜3 log units after the same incubation period, both at a concentration that equaled its MIC value (see FIG. 11A and FIG. 11B). […] For example the time needed to decrease the number of CFU/ml one-fold for C29 was 60 minutes (at the minimum inhibitory concentration), and only 10 minutes for 2×MIC.

With RWVSMLLRRGSRWVSMLLRR [Hit1] the “numbers of bacteria in infected cell monolayers” value [1] was “effectively reduced the numbers of bacteria in infected cell monolayers”.
In the case of “GSPGSPGSARILIFWSR [CRP single interferor peptides, CRP bait flanked with R spotted on the microarray]”, the “signal to noise ratio” value [2] is reported as “over 2.5”.
For “GASRILIFWSRGSRILIFWSR [CRP tandem repeat peptides]”, the “signal to noise ratio” value [2] was “over 2.5”.
RLFNFLKRGSRLFNFLKR [C29/Hit11] was tested, and the “time needed to decrease the number of CFU/ml one-fold” value ([3]; 2×MIC) was 10 min and the “time needed to decrease the number of CFU/ml one-fold” value ([3]; at the minimum inhibitory concentration) was 60 min.
